Results from paper PMC10163288.
The list shows a part of the results.

B1: il2ra_site1_3nfp_sap_11_mot_HHH_b2_05178_af2_000000174_0001_1_19_H_._HHH_b2_07388_0001_0000100002_0000001_0_0001_af2pred_0001_af2pred (protein)
chain: SLEHLERALRQVARADPIAEELLRLLEELRERGVPPEEVLELLLELARELGDPALRYLIEAVLSK
B2: il2ra_site2_3nfp_normal_mot_0e529dd47276c7fc43eae82927e5780b_0001_af2_000000030_0001_35_48_H_._1ca096cc36b46ebbf1faa9362c3fa206_0001_1_0001_0000100002_0000001_0 … (protein)
chain: PLEELKLEAFEKGDPDLRRLLLELRELAEERGIPPEEIEELLERIQEELNVPPEEAIEILIKELK
B3: il2ra_site1_3nfp_normal_mot_HHH_b2_04366_af2_000000103_0001_1_19_H_._d3e5e791db42274430e6ef9f54efc4f5_0001_af2_0001_0000100007_0000001_0_af2pred_0001_af2pred_sw … (protein)
chain: SAKEISELLREAARKDPEVSELLWEALRLFVKNEEEALRLLEELLKELGDPLVEEVLRLLEELAK
B4: il2ra_site2_2erj_normal_mot_HHH_b1_03609_af2_000000077_0001_42_55_H_._HHH_b1_08035_af2_0001_0000100002_0000001_0 (protein)
chain: SSSSDELEELRQRAEELIEEGDPEEALEVLREASELAFELGDFETWSEIAELLRLVARAESSSSS
B5: il2ra_site2_2erj_normal_mot_HHH_b1_06608_000000059_0001_22_39_H_._HHH_b1_04589_0001_0001200014_0000001_0 (protein)
chain: SSSSDEEEVRELIKQAEELLEEGDPEKASRVVARAAFIVIELGNVELARRLFELAREIFEASSSS
B6: il2ra_site2_3nfp_normal_mot_7675ed0aaee259bd5fe474e1c5677d04_0001_1_af2_000000130_0001_50_65_H_._94dd93bd6c412fbbff13e3b64d3c2b88_0001_af2_0001_0000100004_00000 … (protein)
chain: DHTEEYLLAALKLALHDPRTRELVREALELLLGDPEEAEELLKELLELLREGDTERVEELLREVL
B7: il2ra_site1_2b5i_normal_mot_HHH_b1_02271_000000068_0001_1_16_H_._HHH_b2_05591_0001_0000200002_0000001_0_af2pred_dldesign_0_af2pred (protein)
chain: SSSSSPLDARVAATLAEARALAAAGRRREALELLNELAKEIDELDREELRARVEALFRELSSSSS
B8: il2ra_site1_3nfp_normal_mot_HHH_b2_02028_000000074_0001_1_17_H_._8e257ee7c168324b0daa1e7d19ed2966_0001_0001_0000200010_0000001_0_af2pred_0001_af2pred_1_swapped (protein)
chain: SLEEALEFLEELAEKLNDSALKLLVEALEKLVRNGNAELARAAVERFLETTGDPKLEEVLELLRK
B9: il2ra_site2_2erj_normal_mot_HHH_b2_06912_000000039_0001_38_52_H_._HHH_b2_03682_af2_0001_0000400025_0000001_0 (protein)
chain: SSSSSDYWEEVAELLAEALRAFKEGDPELVEELLEEAQRVAEENNDEYLKRYIELARKDASSSSS
B10: il2ra_site2_3nfp_sap_19_mot_HHH_b2_06150_000000217_0001_39_53_H_._HHH_b2_03993_af2_0001_0000100001_0000001_0_0001 (protein)
chain: SSSSDKAQKYLEAAIEIVKRALEEGDPESARKSAETAALAAESRGDEELLKEIEELLEEISSSSS

Molecular target: il2ra, P01589
Assay: yeast display titration

| Binder | apparent Kd |
| --- | --- |
| B1 | inactive: no binding seen |
| B2 | inactive: no binding seen |
| B3 | inactive: no binding seen |
| B4 | inactive: no binding seen |
| B5 | inactive: no binding seen |
| B6 | inactive: no binding seen |
| B7 | inactive: no binding seen |
| B8 | inactive: no binding seen |
| B9 | inactive: no binding seen |
| B10 | inactive: no binding seen |
